# System: Xenopus larvae
# Test: Skin pigmentation adaptation to illumination/background in larvae
# Format: in vivo
# Conditions: D2 receptor agonist
# Procedure: Illumination experiments. The optimal condition for altering skin pigmentation and numbers of TH neurons were determined by raising larvae under two illumination conditions. In the first, larvae were placed on black, grey or white backgrounds (corresponding to N2.25, N7.25 or N9.5 on the Munsell neutral value scale of a monochromatic colour wheel) with constant illumination (331 lux (lx)). In the second, larvae on a white, grey or black background were exposed to constant illumination (6,560 lx, measured with a light meter (Sper Scientific)-equivalent to shady illumination on a sunny day), or to constant dark or to 12 h light/12 h dark. […]. Subsequently, when testing the effect of light on pigmentation or the numbers of TH neurons, animals were usually raised in the dark (stages 35-42) and exposed (typically for 2 h at stage 42) to these optimal conditions. For some tests of the functional significance of newly TH neurons, animals were raised under different light/background conditions and a conditioning step of 30 min light/white background exposure was imposed to achieve similar levels of skin pigmentation before comparing light or dark adaptation between these groups.
# Neuropharmacology. […] For selective ablation of VSCDA neurons, MPTP was bath-applied in the dark to larvae for 8 h at stage 41. 100 mM deprenyl (Sigma) was bath-applied to inhibit monoamine oxidase.
smiles,measurement,value
CCCN1CCC[C@@H]2Cc3n[nH]cc3C[C@H]21.Cl [guinpirole hydrochloride],blanching effect on dark-adapted larvae remaining in the dark after bilateral eye enucleation,persisted to the same extent

# From patent publication US20120283193A1, “MANIPULATION OF BRAIN IN A CIRCUIT-SPECIFIC MANNER” (priority 2009, published 2012)
